Like-named read-outs stand apart in the source and are kept apart here. These are yes or no findings as the source states them, for the method shown. In cells and extracts the contact can be indirect. Some results given as binding are weak or reduced against the parent protein; the word gives no strength.
Legend:
[1] = molecular target: Lrp4 (UniProt Q8VI56); assay: co-IP; co-immunoprecipitation 'in vitro' of transfected proteins; transfection confirmed by immunoblot; bait, antibodies and conditions not stated
[2] = molecular target: Lrp4 (UniProt Q8VI56); assay: as above; remark: listed apart in the source

Protein sequences, listed by entry. Tags and fused reporters are not part of them. Residues count along the entry.
UniProt Q8VI56, residues 21-1905: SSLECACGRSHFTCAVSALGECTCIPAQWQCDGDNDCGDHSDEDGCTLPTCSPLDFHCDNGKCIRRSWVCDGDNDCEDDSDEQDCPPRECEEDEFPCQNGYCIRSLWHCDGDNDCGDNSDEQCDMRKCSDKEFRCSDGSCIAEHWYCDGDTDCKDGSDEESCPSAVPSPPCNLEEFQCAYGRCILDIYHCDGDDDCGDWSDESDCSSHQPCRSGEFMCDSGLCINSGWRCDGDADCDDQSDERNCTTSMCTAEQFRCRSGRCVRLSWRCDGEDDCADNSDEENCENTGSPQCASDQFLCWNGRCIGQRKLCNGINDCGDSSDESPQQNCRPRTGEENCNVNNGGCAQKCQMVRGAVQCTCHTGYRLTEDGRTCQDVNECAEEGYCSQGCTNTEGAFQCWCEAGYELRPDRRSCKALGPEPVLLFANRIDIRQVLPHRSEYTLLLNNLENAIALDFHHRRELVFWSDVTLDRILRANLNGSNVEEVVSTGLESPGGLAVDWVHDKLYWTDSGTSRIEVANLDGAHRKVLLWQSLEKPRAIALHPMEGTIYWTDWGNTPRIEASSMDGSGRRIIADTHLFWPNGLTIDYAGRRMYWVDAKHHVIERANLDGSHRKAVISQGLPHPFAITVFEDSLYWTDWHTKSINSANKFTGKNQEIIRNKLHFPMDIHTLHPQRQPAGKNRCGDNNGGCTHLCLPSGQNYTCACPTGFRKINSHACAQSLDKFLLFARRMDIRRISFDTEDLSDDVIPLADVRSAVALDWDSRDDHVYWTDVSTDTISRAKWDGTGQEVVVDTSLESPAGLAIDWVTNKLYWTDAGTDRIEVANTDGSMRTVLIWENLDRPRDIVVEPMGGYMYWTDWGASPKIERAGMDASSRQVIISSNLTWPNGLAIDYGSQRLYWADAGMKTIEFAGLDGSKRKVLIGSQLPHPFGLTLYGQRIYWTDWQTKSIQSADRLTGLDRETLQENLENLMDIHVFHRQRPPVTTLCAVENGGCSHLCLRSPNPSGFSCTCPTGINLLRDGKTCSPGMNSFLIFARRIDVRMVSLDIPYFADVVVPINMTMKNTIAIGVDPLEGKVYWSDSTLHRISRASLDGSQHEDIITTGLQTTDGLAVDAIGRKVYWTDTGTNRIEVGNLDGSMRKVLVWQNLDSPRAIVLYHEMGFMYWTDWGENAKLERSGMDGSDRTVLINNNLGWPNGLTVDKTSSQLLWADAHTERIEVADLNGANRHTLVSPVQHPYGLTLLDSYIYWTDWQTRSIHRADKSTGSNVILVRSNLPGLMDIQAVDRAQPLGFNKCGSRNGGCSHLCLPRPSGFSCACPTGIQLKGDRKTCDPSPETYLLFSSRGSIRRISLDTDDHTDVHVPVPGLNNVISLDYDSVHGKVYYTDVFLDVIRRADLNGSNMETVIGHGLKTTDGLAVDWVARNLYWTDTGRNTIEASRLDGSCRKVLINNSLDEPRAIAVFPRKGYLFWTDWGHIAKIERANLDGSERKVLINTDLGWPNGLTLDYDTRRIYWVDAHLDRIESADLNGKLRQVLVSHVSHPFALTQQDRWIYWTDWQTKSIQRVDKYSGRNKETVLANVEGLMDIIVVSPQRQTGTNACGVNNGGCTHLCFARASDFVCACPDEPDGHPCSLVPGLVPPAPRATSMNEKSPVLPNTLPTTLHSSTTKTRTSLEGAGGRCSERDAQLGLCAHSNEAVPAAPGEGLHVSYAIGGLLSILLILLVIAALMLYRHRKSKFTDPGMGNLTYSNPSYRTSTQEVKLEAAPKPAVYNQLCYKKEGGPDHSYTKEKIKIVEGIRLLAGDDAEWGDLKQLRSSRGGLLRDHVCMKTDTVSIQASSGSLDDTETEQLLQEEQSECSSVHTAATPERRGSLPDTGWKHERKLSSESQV
UniProt Q8BFU0, residues 24-243: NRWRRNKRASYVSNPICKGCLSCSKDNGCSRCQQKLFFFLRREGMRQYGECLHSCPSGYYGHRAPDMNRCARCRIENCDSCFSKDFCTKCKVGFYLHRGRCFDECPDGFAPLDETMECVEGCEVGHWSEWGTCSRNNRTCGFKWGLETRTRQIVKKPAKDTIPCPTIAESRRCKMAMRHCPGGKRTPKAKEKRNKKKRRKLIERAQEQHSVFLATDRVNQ
UniProt Q9CQN4, residues 24-206: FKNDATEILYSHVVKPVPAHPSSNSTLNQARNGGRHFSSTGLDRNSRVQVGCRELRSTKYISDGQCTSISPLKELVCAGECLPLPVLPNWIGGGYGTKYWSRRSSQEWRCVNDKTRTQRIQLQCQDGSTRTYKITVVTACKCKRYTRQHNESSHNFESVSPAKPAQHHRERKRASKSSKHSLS

| binding [1] | binding [2] | Molecule |
| --- | --- | --- |
| no binding | – | R-spondin 2 (from UniProt Q8BFU0 24-243) (ligand) |
| binds | – | Wise (from UniProt Q9CQN4 24-206) (ligand) |
| – | binds | Gremlin1 (ligand, UniProt O70326 25-184) KKKGSQGAIPPPDKAQHNDSEQTQSPPQPGSRTRGRGQGRGTAMPGEEVLESSQEALHVTERKYLKRDWCKTQPLKQTIHEEGCNSRTIINRFCYGQCNSFYIPRHIRKEEGSFQSCSFCKPKKFTTMMVTLNCPELQPPTKKKRVTRVKQCRCISIDLD |
| – | binds | Dkk1 (ligand, UniProt O54908 32-272) TLNSVLINSNAIKNLPPPLGGAGGQPGSAVSVAPGVLYEGGNKYQTLDNYQPYPCAEDEECGSDEYCSSPSRGAAGVGGVQICLACRKRRKRCMRHAMCCPGNYCKNGICMPSDHSHFPRGEIEESIIENLGNDHNAAAGDGYPRRTTLTSKIYHTKGQEGSVCLRSSDCAAGLCCARHFWSKICKPVLKEGQVCTKHKRKGSHGLEIFQRCYCGEGLACRIQKDHHQASNSSRLHTCQRH |

From article PMC2861670
